Structures can show the parent of a compound that is named as a salt. The list shows a part of the results. Single values are uncertain, as repeats are few or missing.
Each compound was assayed on Echinococcus multilocularis metacestodes (assay: vesicle damage (PGI release) relative to positive control DB1127 at 20 µM, DMSO subtracted; higher = more parasite damage). Conditions: treatment time 5 days.
Experimental: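 In vitro-cultured E. multilocularis metacestode vesicles (isolate H95, 2-4 mm) were treated in singlets with each drug of the Selleck FDA-approved library (426 drugs) at 20 µM for 5 days at 37°C. Damage was read as phosphoglucose isomerase (PGI) release into the medium, measured as the increase in absorbance at 340 nm. Activity was expressed as % of the positive control DB1127 (20 µM) after subtracting the DMSO control; a hit was defined as ≥50% of DB1127.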
`Cc1ccc(-c2cc(C(F)(F)F)nn2-c2ccc(S(N)(=O)=O)cc2)cc1` [Celecoxib] gave a vesicle damage of 33.2%. Work on `COC(=O)C1=C(C)NC(C)=C(C(=O)OCCN2CCN(C(c3ccccc3)c3ccccc3)CC2)C1c1cccc([N+](=O)[O-])c1` (stereo not given) [Manidipine dihydrochloride] yielded a vesicle damage of -1.04%. With `CN(C)CCOc1ccc(/C(=C(/CCCl)c2ccccc2)c2ccccc2)cc1` [Toremifene Citrate] the vesicle damage was 17.5%. Compound `Clc1cccc(Cl)c1NC1=NCCN1` [Clonidine hydrochloride] has a vesicle damage of 0.97%. `CCCc1nc2c(C)cc(-c3nc4ccccc4n3C)cc2n1Cc1ccc(-c2ccccc2C(=O)O)cc1` [Telmisartan] showed a vesicle damage of -12.5%. With `CC(C)[C@H]1CC[C@H](C(=O)N[C@H](Cc2ccccc2)C(=O)O)CC1` [Nateglinide] the vesicle damage was 5.31%. Work on `COc1ccc2[nH]c([S@@+]([O-])Cc3ncc(C)c(OC)c3C)nc2c1` [Esomeprazole sodium] yielded a vesicle damage of 3.38%. Compound `O=C(N[C@H](CO)[C@H](O)c1ccc([N+](=O)[O-])cc1)C(Cl)Cl` [Chloramphenicol] has a vesicle damage of -0.769%. With `CCOc1cc(CC(=O)N[C@@H](CC(C)C)c2ccccc2N2CCCCC2)ccc1C(=O)O` [Repaglinide] the vesicle damage was -3.38%. Compound `COc1ccc(/C=C/C(=O)Nc2ccccc2C(=O)O)cc1OC` [Tranilast] has a vesicle damage of -1.55%. `Nc1nc2[nH]cnc2c(=S)[nH]1` [Thioguanine] was tested, and the vesicle damage was -9.75%. Compound `CC(C)C(=O)Oc1ccc(CO)cc1[C@H](CCN(C(C)C)C(C)C)c1ccccc1` [Fesoterodine fumarate] has a vesicle damage of -0.981%. Work on `Nc1ncnc2c1ncn2[C@@H]1O[C@H](CO)[C@@H](O)[C@H]1O` [Adenosine] yielded a vesicle damage of -2.42%. In the case of `N#CC1(c2ccc(NC(=O)c3cccnc3NCc3ccncc3)cc2)CCCC1` [Apatinib], the vesicle damage is reported as 2.22%. With `CCOC(=O)C1=C(COCCN)NC(C)=C(C(=O)OC)C1c1ccccc1Cl` (stereo not given) [Amlodipine besylate] the vesicle damage was 35.5%. Compound `CO[C@H]1/C=C/O[C@@]2(C)Oc3c(C)c(O)c4c(O)c(c(/C=N/N5CCN(C6CCCC6)CC5)c(O)c4c3C2=O)NC(=O)/C(C)=C\C=C\[C@H](C)[C@H](O)[C@@H](C)[C@@H](O)[C@@H](C)[C@H](OC(C)=O)[C@@H]1C` [Rifapentine] has a vesicle damage of 2.18%. `O=c1c(-c2ccc(O)cc2)coc2cc(O)ccc12` [Daidzein] gave a vesicle damage of -10.3%. `COc1cc2ncnc(Nc3ccc(F)c(Cl)c3)c2cc1OCCCN1CCOCC1` [Gefitinib] was tested, and the vesicle damage was -3.07%. Work on `CN(C)CC/C=C1/c2ccccc2Sc2ccc(Cl)cc21` [Chlorprothixene] yielded a vesicle damage of -0.74%. With `CCC1(c2ccccc2)C(=O)NCNC1=O` [Primidone] the vesicle damage was -11%. Work on `Nc1ccn([C@@H]2O[C@H](CO)[C@@H](O)C2(F)F)c(=O)n1` [Gemcitabine Hydrochloride] yielded a vesicle damage of 0.979%. `CCC(C)(C)C(=O)O[C@H]1C[C@@H](C)C=C2C=C[C@H](C)[C@H](CC[C@@H]3C[C@@H](O)CC(=O)O3)[C@H]21` [Simvastatin] was tested, and the vesicle damage was 4.02%. With `Cc1nc(Nc2ncc(C(=O)Nc3c(C)cccc3Cl)s2)cc(N2CCN(CCO)CC2)n1` [Dasatinib] the vesicle damage was -0.523%. With `OC(CNCC(O)C1CCc2cc(F)ccc2O1)C1CCc2cc(F)ccc2O1` (stereo not given) [Nebivolol HCl] the vesicle damage was -6.68%. `CN1[C@@H]2CC[C@H]1C[C@@H](OC(=O)c1c[nH]c3ccccc13)C2` [Tropisetron hydrochloride] showed a vesicle damage of -12.6%. With `Cc1oncc1C(=O)Nc1ccc(C(F)(F)F)cc1` [Leflunomide] the vesicle damage was 0.295%. `C[C@H](Cn1cnc2c(N)ncnc21)OCP(=O)(O)O` [Tenofovir] showed a vesicle damage of -3.82%. For `CO/N=C(\C(=O)N[C@@H]1C(=O)N2C(C(=O)OCOC(=O)C(C)(C)C)=C(/C=C\c3scnc3C)CS[C@H]12)c1csc(N)n1` [Cefditoren pivoxil], the vesicle damage was -13.1%. `Nc1ccn([C@@H]2O[C@H](CO)[C@@H](O)[C@@H]2O)c(=O)n1` [Cytarabine] was tested, and the vesicle damage was -0.316%. For `CCCCC(=O)N(Cc1ccc(-c2ccccc2-c2nnn[nH]2)cc1)[C@H](C(=O)O)C(C)C` [Valsartan], the vesicle damage was -10.8%. `CN(CCOc1ccc(CC2SC(=O)NC2=O)cc1)c1ccccn1` (stereo not given) [Rosiglitazone] gave a vesicle damage of -1.77%. `COc1ccccc1OCC(O)CN1CCN(CC(=O)Nc2c(C)cccc2C)CC1` (stereo not given) [Ranolazine dihydrochloride] showed a vesicle damage of -5.33%. In the case of `Cc1ccnc2c1NC(=O)c1cccnc1N2C1CC1` [Nevirapine], the vesicle damage is reported as -12%. `CNCCCC12CCC(c3ccccc31)c1ccccc12` [Maprotiline hydrochloride] gave a vesicle damage of -6.88%. For `CC(C)(C)NC(=O)[C@H]1CC[C@H]2[C@@H]3CC[C@H]4NC(=O)C=C[C@]4(C)[C@H]3CC[C@]12C` [Finasteride], the vesicle damage was 0.276%. In the case of `C[C@H]1C[C@H]2[C@@H]3CCC4=CC(=O)C=C[C@]4(C)[C@H]3C(=O)C[C@]2(C)[C@@]1(O)C(=O)CO` [Betapar], the vesicle damage is reported as -0.474%. `CCCNC(C)C(=O)Nc1ccccc1C` (stereo not given) [Prilocaine] was tested, and the vesicle damage was -2.85%. With `CN(C)CCCN1c2ccccc2CCc2ccc(Cl)cc21` [Clomipramine hydrochloride] the vesicle damage was 31.2%. `NC(=O)N1c2ccccc2C=Cc2ccccc21` [Carbamazepine] showed a vesicle damage of -3.05%. Work on `COC(=O)C1=C(C)NC(C)=C(C(=O)OCCN2CCN(C(c3ccccc3)c3ccccc3)CC2)C1c1cccc([N+](=O)[O-])c1` (stereo not given) [Manidipine] yielded a vesicle damage of 0.374%.

— the supplement of paper PMC4256282, “Profound Activity of the Anti-cancer Drug Bortezomib against Echinococcus multilocularis Metacestodes Identifies the Proteasome as a Novel Drug Target for Cestodes” (PLoS Neglected Tropical Diseases, 2014)
